According to the supplement of paper PMC11732987, “Enantioselective OTUD7B fragment discovery through chemoproteomics screening and high-throughput optimisation” (Communications Chemistry, 2025):
This is one part of the list. The data scatter; read single values as rough.

Sequences of proteins named here, by UniProt entry; tags and fusion partners are left off. A change or cut given only in a name is not applied to a line headed by its entry. Residues count along the entry.
UniProt Q9HB20: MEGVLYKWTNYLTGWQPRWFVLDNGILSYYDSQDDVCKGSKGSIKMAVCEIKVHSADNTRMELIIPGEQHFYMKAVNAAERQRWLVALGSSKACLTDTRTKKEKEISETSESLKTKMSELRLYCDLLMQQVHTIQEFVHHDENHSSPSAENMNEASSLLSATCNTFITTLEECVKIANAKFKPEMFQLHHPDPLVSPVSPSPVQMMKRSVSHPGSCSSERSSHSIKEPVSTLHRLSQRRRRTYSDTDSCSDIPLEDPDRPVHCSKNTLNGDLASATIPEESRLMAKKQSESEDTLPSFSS
UniProt Q9H9Y6, whole entry, looked up: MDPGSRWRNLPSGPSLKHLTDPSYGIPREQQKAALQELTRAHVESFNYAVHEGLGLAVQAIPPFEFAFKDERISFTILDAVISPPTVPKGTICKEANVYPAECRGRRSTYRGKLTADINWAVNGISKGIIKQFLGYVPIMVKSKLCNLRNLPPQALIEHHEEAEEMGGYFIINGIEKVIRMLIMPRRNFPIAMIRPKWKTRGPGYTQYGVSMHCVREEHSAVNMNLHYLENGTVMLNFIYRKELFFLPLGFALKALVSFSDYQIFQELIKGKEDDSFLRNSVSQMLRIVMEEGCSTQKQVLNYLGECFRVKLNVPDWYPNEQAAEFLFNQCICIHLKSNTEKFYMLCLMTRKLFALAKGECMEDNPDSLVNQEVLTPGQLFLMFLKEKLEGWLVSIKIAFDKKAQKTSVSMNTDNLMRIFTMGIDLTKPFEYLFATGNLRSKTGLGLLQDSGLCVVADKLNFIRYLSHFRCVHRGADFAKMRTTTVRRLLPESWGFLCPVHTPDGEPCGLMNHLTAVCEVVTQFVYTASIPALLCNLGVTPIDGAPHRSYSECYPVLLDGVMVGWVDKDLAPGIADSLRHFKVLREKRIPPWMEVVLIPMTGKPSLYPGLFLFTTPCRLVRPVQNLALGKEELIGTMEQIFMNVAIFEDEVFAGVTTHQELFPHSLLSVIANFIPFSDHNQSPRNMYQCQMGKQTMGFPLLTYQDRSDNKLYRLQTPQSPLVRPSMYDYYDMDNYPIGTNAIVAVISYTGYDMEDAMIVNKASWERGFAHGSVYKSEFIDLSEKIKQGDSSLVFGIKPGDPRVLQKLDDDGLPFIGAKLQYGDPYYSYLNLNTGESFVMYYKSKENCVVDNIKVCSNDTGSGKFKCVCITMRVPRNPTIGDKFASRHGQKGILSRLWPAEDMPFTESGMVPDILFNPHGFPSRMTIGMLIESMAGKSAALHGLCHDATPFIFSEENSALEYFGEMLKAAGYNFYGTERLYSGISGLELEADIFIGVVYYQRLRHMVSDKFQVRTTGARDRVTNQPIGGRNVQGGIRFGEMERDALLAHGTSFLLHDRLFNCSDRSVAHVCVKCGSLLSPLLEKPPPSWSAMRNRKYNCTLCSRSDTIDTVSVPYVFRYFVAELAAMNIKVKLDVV
UniProt Q07864, 1596-1616: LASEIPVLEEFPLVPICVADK
UniProt Q07864, whole entry, looked up: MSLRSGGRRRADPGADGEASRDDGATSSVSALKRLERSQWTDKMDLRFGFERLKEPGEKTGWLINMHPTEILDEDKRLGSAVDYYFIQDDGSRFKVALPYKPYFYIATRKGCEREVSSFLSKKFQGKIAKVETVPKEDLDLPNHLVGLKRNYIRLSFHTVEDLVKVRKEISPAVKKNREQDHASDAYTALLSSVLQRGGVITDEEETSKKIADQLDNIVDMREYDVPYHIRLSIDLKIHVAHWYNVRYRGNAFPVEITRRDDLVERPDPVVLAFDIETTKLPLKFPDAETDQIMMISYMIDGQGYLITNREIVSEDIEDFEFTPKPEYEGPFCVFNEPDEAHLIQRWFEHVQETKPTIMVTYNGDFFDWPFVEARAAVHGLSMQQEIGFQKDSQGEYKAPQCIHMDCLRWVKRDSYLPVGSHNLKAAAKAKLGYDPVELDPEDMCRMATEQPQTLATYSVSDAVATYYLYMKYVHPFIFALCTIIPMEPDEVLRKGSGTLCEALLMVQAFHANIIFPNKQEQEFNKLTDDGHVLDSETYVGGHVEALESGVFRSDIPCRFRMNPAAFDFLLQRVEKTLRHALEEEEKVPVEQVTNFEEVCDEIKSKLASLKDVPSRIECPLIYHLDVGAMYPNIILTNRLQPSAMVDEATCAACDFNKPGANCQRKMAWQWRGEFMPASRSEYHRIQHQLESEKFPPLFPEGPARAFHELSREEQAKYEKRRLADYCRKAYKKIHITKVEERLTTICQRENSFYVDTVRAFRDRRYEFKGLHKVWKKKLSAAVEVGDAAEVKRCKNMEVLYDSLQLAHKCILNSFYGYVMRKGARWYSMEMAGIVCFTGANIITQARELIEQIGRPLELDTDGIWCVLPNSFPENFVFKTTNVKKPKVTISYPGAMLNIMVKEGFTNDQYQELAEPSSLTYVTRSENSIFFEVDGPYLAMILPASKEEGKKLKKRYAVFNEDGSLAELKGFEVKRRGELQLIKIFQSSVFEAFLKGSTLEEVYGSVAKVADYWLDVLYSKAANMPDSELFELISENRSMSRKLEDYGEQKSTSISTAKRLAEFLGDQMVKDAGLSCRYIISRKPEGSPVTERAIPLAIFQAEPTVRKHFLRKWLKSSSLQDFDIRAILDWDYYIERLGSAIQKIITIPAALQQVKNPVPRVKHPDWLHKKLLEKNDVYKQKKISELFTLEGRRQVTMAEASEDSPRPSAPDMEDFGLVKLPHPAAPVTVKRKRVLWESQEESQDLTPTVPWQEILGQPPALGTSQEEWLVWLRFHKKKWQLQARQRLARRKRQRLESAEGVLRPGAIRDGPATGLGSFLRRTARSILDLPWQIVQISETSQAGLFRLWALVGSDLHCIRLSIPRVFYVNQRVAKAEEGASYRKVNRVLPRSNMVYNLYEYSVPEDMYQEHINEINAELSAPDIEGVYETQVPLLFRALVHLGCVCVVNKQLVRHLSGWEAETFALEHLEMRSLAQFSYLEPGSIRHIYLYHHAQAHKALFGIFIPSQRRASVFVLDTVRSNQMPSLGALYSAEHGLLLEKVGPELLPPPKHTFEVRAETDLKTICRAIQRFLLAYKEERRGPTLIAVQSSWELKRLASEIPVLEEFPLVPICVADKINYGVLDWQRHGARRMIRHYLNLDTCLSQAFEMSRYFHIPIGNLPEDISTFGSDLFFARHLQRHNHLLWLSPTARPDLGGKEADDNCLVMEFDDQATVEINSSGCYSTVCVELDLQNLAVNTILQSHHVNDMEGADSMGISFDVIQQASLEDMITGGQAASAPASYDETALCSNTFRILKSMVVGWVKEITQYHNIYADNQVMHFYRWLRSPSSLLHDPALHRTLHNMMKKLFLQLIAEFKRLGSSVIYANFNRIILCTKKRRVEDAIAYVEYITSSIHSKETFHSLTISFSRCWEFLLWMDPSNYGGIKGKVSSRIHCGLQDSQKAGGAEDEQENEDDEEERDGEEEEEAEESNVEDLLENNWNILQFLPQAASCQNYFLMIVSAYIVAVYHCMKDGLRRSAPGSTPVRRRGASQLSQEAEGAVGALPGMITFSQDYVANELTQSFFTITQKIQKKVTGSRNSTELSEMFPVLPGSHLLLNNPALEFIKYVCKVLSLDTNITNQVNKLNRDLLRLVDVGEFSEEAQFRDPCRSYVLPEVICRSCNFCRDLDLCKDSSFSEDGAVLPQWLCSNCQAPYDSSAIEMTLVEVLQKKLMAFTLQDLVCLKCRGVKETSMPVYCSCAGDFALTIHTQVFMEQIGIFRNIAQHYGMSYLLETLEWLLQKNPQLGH
UniProt O75928: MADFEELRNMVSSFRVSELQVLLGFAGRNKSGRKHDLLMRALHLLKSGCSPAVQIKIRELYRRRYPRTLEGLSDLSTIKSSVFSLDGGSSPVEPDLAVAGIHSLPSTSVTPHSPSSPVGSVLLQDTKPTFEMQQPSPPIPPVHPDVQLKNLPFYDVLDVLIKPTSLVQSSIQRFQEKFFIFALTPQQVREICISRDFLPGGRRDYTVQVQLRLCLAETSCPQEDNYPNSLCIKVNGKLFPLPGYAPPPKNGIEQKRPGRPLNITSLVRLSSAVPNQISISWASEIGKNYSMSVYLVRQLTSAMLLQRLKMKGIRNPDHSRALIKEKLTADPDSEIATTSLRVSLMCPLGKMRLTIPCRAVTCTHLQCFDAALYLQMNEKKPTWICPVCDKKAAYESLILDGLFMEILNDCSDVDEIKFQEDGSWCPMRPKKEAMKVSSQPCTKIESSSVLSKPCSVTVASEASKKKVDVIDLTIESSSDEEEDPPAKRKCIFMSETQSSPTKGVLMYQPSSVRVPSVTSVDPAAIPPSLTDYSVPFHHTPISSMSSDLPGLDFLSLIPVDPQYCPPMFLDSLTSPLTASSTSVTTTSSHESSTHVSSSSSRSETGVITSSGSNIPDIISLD
UniProt P78337, whole entry, looked up: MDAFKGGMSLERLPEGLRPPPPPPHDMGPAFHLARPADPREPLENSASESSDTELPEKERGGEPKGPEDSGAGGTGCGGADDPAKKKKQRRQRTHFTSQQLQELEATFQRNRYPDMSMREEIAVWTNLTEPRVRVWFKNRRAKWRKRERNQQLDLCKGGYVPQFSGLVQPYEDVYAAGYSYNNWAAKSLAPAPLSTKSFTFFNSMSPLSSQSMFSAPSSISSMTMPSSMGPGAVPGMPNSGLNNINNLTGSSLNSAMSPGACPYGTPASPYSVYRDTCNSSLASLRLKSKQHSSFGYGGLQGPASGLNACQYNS
UniProt O15305: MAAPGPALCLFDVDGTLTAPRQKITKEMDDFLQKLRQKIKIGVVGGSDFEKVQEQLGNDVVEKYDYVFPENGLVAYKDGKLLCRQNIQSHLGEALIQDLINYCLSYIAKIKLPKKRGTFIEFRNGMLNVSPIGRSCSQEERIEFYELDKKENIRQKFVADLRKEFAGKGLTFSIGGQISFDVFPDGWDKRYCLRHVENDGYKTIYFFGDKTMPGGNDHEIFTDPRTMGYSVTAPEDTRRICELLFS
UniProt P47712: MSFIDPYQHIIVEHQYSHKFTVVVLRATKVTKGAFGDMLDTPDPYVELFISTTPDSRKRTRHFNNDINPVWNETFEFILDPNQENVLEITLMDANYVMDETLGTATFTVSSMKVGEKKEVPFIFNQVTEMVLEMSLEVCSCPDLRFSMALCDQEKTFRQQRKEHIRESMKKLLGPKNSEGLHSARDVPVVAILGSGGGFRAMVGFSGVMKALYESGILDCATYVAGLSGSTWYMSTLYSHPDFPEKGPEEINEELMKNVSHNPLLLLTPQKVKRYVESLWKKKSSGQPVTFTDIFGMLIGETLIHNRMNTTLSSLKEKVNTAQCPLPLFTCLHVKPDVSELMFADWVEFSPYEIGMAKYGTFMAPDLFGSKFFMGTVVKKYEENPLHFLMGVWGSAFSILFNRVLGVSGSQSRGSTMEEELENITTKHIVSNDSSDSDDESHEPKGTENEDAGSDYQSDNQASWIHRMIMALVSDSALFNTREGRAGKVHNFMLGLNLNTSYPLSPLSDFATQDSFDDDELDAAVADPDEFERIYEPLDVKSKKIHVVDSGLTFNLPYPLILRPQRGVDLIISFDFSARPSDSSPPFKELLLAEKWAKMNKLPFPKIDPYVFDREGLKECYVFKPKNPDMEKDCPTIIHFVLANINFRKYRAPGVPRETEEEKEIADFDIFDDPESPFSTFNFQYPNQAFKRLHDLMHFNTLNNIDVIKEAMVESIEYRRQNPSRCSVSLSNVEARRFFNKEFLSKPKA
UniProt Q14442: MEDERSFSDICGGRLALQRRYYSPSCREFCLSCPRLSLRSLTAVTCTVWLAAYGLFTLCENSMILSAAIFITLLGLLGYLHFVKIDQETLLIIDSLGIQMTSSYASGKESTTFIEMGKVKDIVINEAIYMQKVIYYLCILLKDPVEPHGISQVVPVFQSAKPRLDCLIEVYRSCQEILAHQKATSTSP

Compound: ClCC(=O)N[C@@H]1CCCc2ccccc12
Experiment: log2 mean competition ratio of IA-DTB cysteine labelling (DMSO/compound) (log2 ratio); higher = stronger cysteine engagement by compound
Conditions: 50 µM; treatment time: 4 h; cell line lysate: HEK293T
Procedure: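 IA-DTB competitive cysteine chemoproteomics in HEK293T RIPA lysate. Lysates were treated with compound 29 or 30 at 50 or 200 µM for 4 h, then IA-DTB (500 µM, 1 h), trypsin-digested, NeutrAvidin-enriched and analysed by diaPASEF. Competition ratio = intensity DMSO / intensity compound (n=4 treated, n=64 DMSO); binding: mean log2 CR ≥ 1 and p ≤ 0.05 plus QC filters. Target is the cysteine site.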

| Target | log2 mean competition ratio |
| --- | --- |
| PLEKHA3 C94 (UniProt Q9HB20) | -0.0366 |
| POLR1B C1070 (UniProt Q9H9Y6) | 0.203 |
| PLCXD1 C153 (UniProt Q9NUJ7) | -0.0684 |
| POGLUT1 C102 (UniProt Q8NBL1) | -0.188 |
| PMS1 C243 (UniProt P54277) | -0.172 |
| POLE C1612 (UniProt Q07864) | 0.185 |
| POLE C747 (UniProt Q07864) | -0.0778 |
| PIAS2 C425 (UniProt O75928) | -0.167 |
| PITX1 C278 (UniProt P78337) | -0.0144 |
| PLD2 C736 | 0.016 |
| PNKP C308 (UniProt Q96T60) | -0.149 |
| PMM2 C136 (UniProt O15305) | -0.097 |
| PLA2G4A C726 (UniProt P47712) | 0.0735 |
| POLL C241 | -0.0164 |
| PIAS3 C620 | 0.0618 |
| PNPLA6 C665 (UniProt Q8IY17) | -0.158 |
| POLK C8 (UniProt Q9UBT6) | -0.0304 |
| PIGH C11 (UniProt Q14442) | -0.035 |
| PHKB C348 (UniProt Q93100) | 0.299 |
| PKP4 C591 (UniProt Q99569) | 0.129 |

Same assay, conditions: 200 µM; treatment time: 4 h; cell line lysate: HEK293T

| Target | log2 mean competition ratio |
| --- | --- |
| PLEKHA3 C94 (UniProt Q9HB20) | -0.123 |
| POLR1B C1070 (UniProt Q9H9Y6) | -0.309 |
| PLCXD1 C153 (UniProt Q9NUJ7) | 0.169 |
| POGLUT1 C102 (UniProt Q8NBL1) | -0.123 |
| PMS1 C243 (UniProt P54277) | 0.0526 |
| POLE C1612 (UniProt Q07864) | 0.21 |
| POLE C747 (UniProt Q07864) | -0.061 |
| PIAS2 C425 (UniProt O75928) | 0.00309 |
| PITX1 C278 (UniProt P78337) | 0.101 |
| PLD2 C736 | -0.22 |
| PNKP C308 (UniProt Q96T60) | 0.0704 |
| PMM2 C136 (UniProt O15305) | 0.0249 |
| PLA2G4A C726 (UniProt P47712) | -0.128 |
| POLL C241 | -0.213 |
| PIAS3 C620 | 0.443 |
| PNPLA6 C665 (UniProt Q8IY17) | -0.372 |
| POLK C8 (UniProt Q9UBT6) | 0.327 |
| PIGH C11 (UniProt Q14442) | 0.12 |
| PHKB C348 (UniProt Q93100) | -0.138 |
| PKP4 C591 (UniProt Q99569) | 0.136 |
